These are yes or no findings as the source states them, for the method shown. For some assays here: In cells and extracts the contact can be indirect. Some results given as binding are weak or reduced against the parent protein; the word gives no strength.
Key:
[1] = biological target: extracellular domain of purified cMet protein, cMet-ECD (10692-H08H, Sino Biological Inc.) (UniProt P08581); test: phage display biopanning against purified cMet-ECD, enriched after 4 rounds
[2] = biological target: purified mouse cMet-ECD protein (50622-M08H, Sino Biological) (mouse) (UniProt P16056); test: pull-down, peptide immobilized on EHS beads, Western blot

binding [1]: binds
binding [2]: binds
B1: unlabeled QQT* (QQTNWSL) (peptide)
peptide: QQTNWSL
